Our source for the binding values is doi:10.1101/2021.04.01.438077.

Amino acid sequences for entries named in this document (tags omitted).
UniProt Q9UHB6: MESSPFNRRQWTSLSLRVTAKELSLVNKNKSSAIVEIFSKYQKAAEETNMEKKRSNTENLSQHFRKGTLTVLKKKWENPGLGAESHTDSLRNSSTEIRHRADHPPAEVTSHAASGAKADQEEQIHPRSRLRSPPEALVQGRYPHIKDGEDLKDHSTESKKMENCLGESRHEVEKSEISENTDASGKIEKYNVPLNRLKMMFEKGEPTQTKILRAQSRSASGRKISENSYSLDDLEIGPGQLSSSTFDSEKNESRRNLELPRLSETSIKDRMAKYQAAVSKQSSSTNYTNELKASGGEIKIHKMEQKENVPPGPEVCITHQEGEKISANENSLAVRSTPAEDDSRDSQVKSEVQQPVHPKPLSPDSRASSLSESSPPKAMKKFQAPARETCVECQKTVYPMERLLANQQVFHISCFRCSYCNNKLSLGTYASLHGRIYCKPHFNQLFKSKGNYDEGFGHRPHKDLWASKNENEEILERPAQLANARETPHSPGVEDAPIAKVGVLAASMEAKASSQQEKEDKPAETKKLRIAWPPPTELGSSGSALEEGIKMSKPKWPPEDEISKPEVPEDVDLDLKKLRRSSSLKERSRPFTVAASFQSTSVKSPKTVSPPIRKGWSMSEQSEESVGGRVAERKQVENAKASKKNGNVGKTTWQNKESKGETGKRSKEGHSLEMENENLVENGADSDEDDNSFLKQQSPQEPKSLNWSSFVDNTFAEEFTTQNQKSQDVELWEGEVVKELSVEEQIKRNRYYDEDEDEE

Residue numbers refer to the chain shown, from its start. No constants are given. Whether binding was seen depends on the method and setting. Binding seen in cells or lysates may run through a third protein. Some results given as binding are weak or reduced against the parent protein; the word gives no strength. Tags and fused reporters may be left off the sequences shown.

The target in one assay is T1, GST-Rab40b (UniProt Q12829).
T1 sequence: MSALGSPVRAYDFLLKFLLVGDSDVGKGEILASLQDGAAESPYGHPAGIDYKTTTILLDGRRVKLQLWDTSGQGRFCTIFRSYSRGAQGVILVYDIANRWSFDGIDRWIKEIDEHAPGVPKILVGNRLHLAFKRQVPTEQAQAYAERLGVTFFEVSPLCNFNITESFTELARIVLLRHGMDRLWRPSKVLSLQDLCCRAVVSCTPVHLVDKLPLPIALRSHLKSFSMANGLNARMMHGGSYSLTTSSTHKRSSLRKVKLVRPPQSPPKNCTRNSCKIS
Description: pull-down.

The next assay deals with T2, Flag-Rab40b (wild type) (UniProt Q12829).
T2 sequence: T1 sequence
Description: co-IP.

In the next assay the target is T3, Flag-Rab40b-4A (UniProt Q12829).
T3 sequence: T1 sequence with L212A, P213A, L214A, P215A
Description: co-IP.

Regarding “EPLIN (Epithelial Protein Lost In Neoplasia), endogenous (from UniProt Q9UHB6 1-759)”, the values for the binding entry in the assay with GST-Rab40b, with Flag-Rab40b (wild type) and with Flag-Rab40b-4A were “binds”, “binds weakly” and “binds”, respectively.
